Measured values published in PubChem BioAssay AID492980 (National Center for Advancing Translational Sciences (NCATS), 2010).
Among all 1,400 compounds or so, fewer than 10 were called active. The shares of active, inactive and inconclusive entries below differ from those in the screen. Calls come from the whole dose curve. Potencies of inconclusive entries are doubtful fits and often do not repeat.

Test: Assay for Inhibitors of Influenza NS1 Protein Function: Hit Validation
Settings: influenza NS1 function cell assay, 15-point titration; series mostly up to 32.9 µM
Description: NIH Chemical Genomics Center [NCGC]
NIH Molecular Libraries Probe Centers Network [MLPCN]
Assay Submitter (PI): Daniel Engel
Influenza is a world-wide public health problem and emerging forms of the virus have the potential to cause a pandemic of equal or greater magnitude to the outbreaks recorded in 1918, 1957 or 1968. Vaccine development is proceeding and there also exist two classes of anti-influenza compounds. However these therapeutic modalities are neither fully effective nor widely enough available to fulfill global needs. In addition their potential usefulness against newly emergent strains is not known. Efforts are needed to develop novel agents against influenza virus, including broad-spectrum agents. Identification of small molecules that inhibit NS1 function either directly or by interfering with specific cellular pathways may be a key to increasing our defense against the virus.
We have miniaturized and optimized a cell based assay in which NS1 from influenza A is expressed in the budding yeast S. cerevisiae. NS1 is a multi-functional protein that counters the host innate immune response and facilitates viral versus cellular gene expression. Expression of NS1 causes a pronounced slow growth phenotype in yeast due to its intrinsic molecular activities. Small molecules that suppress the slow growth phenotype can be identified by a straightforward growth recovery assay using optical density (OD) as the measurement. The same yeast strain not expressing NS1 was used as positive control in the yeast growth recovery assay. The present experiment attempted to confirm the activity of compounds observed in the primary screen.
The yeast S. cerevisiae control and NS1 expressing cells were kindly supplied by laboratory of Dr. Daniel Engel, University of Virginia. Yeast starter cultures were stored in single use aliquots at -80C.
1. Yeast culture medium per liter: 1.2 g Yeast Nitrogen Base (w/out amino acids and Ammonium Sulphate), 5.0g Ammonium Sulphate, 0.77g -URA DO (drop-out) Supplement, adjust pH to 6.0. Adjust to 2% glucose prior to inoculating with yeast.
2. Yeast assay medium: 1.2 g Yeast Nitrogen Base (w/out amino acids and Ammonium Sulphate), 5.0g Ammonium Sulphate, 0.77g -URA DO (drop-out) Supplement, adjust pH to 6.0. Adjust to 2% D-galactose prior to inoculating with yeast.
1. Inoculate 100 mls of yeast culture medium with 1 ml of frozen yeast aliquote. Incubate overnight at 30C, 250RPM.
2. Harvest overnight culture at 4000 RPM and wash pellet with 15 mls H2O 3x.
3. Re-suspend washed pellet in 10 mls of yeast assay medium.
4. Prepare a 1:100 dilution of re-suspended culture in yeast assay medium.
5. Dispense 3.5 ul per well of reagents in step 4 in columns 2-48 in a black clear bottom 1536 well plate.
6. Dispense 3.5 ul per well of yeast assay medium in column 1 only.
7. Transfer 23 nl of compound per well.
8. Dispense 3.5 ul per well of yeast assay medium in columns 1-48.
9. Read plate using Viewlux protocol for optical density 600 (OD600) using excitation filter 600nm.

| Compound | Potency |
| --- | --- |
| Cc1ccc(-n2c(SCC(=O)Nc3ccc4c5c(cccc35)CC4)nc(O)c(C)c2=O)cc1 | inactive |
| COc1ccc(COc2cc(-c3cccc(OC)c3)nc3ccc(NC(=O)c4ccc(N(C)C)cc4)cc23)cc1 | inconclusive: 8.89 µM [signal inhibitor, single point] |
| CC(C)(C)c1nc(N2CCN(C(=O)c3ccco3)CC2)c2nnn(Cc3ccccc3Cl)c2n1 | inconclusive: 7.06 µM [signal activator, full curve, poor fit] |
| C#CCOc1ccc(/C=C2/C(=O)N(c3cccc(C(=O)O)c3)N=C2C)cc1OC | inconclusive: 5.61 µM [signal activator, full curve, poor fit] |
| COc1ccc2cc(/C=N/NC(=O)c3ccc(CN(c4cccc(Cl)c4Cl)S(C)(=O)=O)cc3)c(Cl)nc2c1 | inconclusive: 22.3 µM [signal activator, single point] |
| O=C(CN(c1ccccc1)S(=O)(=O)c1ccccc1[N+](=O)[O-])NN=C1CCCCCCC1 | inconclusive: 25.1 µM [signal inhibitor, single point] |
| COc1ccc(C(C)=O)cc1CSc1nnc(-c2ccc(Cl)cc2)n1-c1ccccc1 | inconclusive: 11.2 µM [signal inhibitor, partial curve] |
| CC1CC(C)CN(S(=O)(=O)N2CCC(C(=O)NCCc3ccccc3)CC2)C1 (stereo not drawn) | inactive |
| COc1ccc(CN2CCN(C(=O)CCC(=O)Nc3nnc(CC(C)C)s3)CC2)cc1F | inconclusive: 5.61 µM [signal inhibitor, partial curve] |
| CC1(OC(=O)c2cccs2)C(=O)C=C2C=C3CCCN3C=C2C1=O (stereo not drawn) | inactive |
| CCCc1cc(=O)oc2cc(OCC(=O)N3CCC(C(=O)O)(c4ccccc4)CC3)ccc12 | inconclusive: 14.1 µM [signal activator, partial curve, poor fit] |
| Cc1ccc(C(=O)Nc2ccccc2C(=O)O)cc1S(=O)(=O)Nc1ccccc1 | inactive |
| O=C(NCc1ccc(C(F)(F)F)cc1)C12CN(Cc3ccccc3)CC1C(c1cccc([N+](=O)[O-])c1)=NO2 (stereo not drawn) | inactive |
| COc1ccc2oc(/C=C/N(C)C)c(C(=O)c3ccc(Cl)cc3)c2c1 | inactive |
| CC(C)CCNC(=O)NC(=O)CSc1nnc2ccccn12 | inactive |
| COC(=O)c1ccccc1NC(=S)N(Cc1ccc2c(c1)OCO2)Cc1cc2cc(C)ccc2[nH]c1=O | inconclusive: 11.2 µM [signal inhibitor, single point] |
| COc1ccc(OC)c(S(=O)(=O)N2CCCC2C(=O)N2CCc3ccccc3C2)c1 (stereo not drawn) | inconclusive: 8.89 µM [signal inhibitor, partial curve, poor fit] |
| COc1ccc(-c2nnc(SC(C(=O)c3c[nH]c4ccccc34)c3ccccc3)n2N)cc1OC (stereo not drawn) | inconclusive: 8.89 µM [signal inhibitor, single point] |
| O=C(CSc1nnc(-c2c[nH]c3ccccc23)o1)N1c2ccccc2CCc2ccccc21 | inconclusive: 9.98 µM [signal activator, full curve, poor fit] |

An excerpt from above in order of length of the SMILES, ascending.

| Compound | Potency |
| --- | --- |
| CC(C)CCNC(=O)NC(=O)CSc1nnc2ccccn12 | inactive |
| COc1ccc2oc(/C=C/N(C)C)c(C(=O)c3ccc(Cl)cc3)c2c1 | inactive |
| COc1ccc(CN2CCN(C(=O)CCC(=O)Nc3nnc(CC(C)C)s3)CC2)cc1F | inconclusive: 5.61 µM [signal inhibitor, partial curve] |

Next part.

| Compound | Potency |
| --- | --- |
| Fc1ccc(-c2csc(N3CCC(c4ccccc4)C3)n2)cc1 (stereo not drawn) | inactive |
| O=C(Cc1cc(=O)[nH][nH]1)N/N=C/c1ccccc1[N+](=O)[O-] | inconclusive: 11.2 µM [signal activator, partial curve, poor fit] |
| CCOc1cc(/C=N/NC(=O)COc2ccc(Cl)cc2)ccc1OS(=O)(=O)c1ccccc1 | inconclusive: 25.1 µM [signal inhibitor, single point] |
| Cc1cc(C)c(-c2cc(NC(=O)COC(=O)c3ccc(CO)cc3)n(-c3ccccc3)n2)cc1C | inactive |
| COc1cc(/C=N/n2c(-c3n[nH]c4c3CCC4)n[nH]c2=S)ccc1O | inconclusive: 3.54 µM [signal activator, partial curve, poor fit] |
| O=C(CC1NCCNC1=O)Nc1ccc2c(c1)OCO2 (stereo not drawn) | inactive |
| Cc1noc(/C=C/N(C)C)c1S(=O)(=O)N1CCCC(C(=O)NC(C)c2ccccc2)C1 (stereo not drawn) | inconclusive: 15.8 µM [signal activator, partial curve, poor fit] |
| CCn1nc(C(=O)OCc2cccc(S(=O)(=O)N(C)C)c2)c2ccccc2c1=O | inconclusive: 7.93 µM [signal inhibitor, partial curve, poor fit] |
| COCc1cc(CN2CCCC2)c(O)c2ncccc12 | inconclusive: 17.7 µM [signal inhibitor, partial curve] |
| CCOC(=O)Nc1ccc2c(CN3CCN(S(=O)(=O)c4ccccc4)CC3)cc(=O)oc2c1 | inactive |
| CC(=O)Nc1ccc(/C(C)=N/Nc2nc(Nc3cccc4ccccc34)nc(N3CCOCC3)n2)cc1 | inconclusive: 8.89 µM [signal inhibitor, full curve, poor fit] |
| COc1ccc(/C=N/NC(=O)c2ccc3ccccc3c2)cc1OS(=O)(=O)c1ccc(NC(C)=O)cc1 | inactive |
| Cc1cc(C)cc(NC(=O)CSc2nc3c(oc4ccccc43)c(=O)n2-c2ccccc2)c1 | inconclusive: 15.8 µM [signal inhibitor, partial curve] |
| Cc1c(C(=O)N2CCN(Cc3ccc4c(c3)OCO4)CC2)sc2ncnc(N3CCN(c4ccccc4)CC3)c12 | inconclusive: 15.8 µM [signal inhibitor, partial curve] |
| Cc1cc(OCC(=O)NC(Cc2ccc(Cl)cc2)C(=O)O)c2c(C)c(C)c(=O)oc2c1 (stereo not drawn) | inconclusive: 22.3 µM [signal activator, partial curve, poor fit] |
| CC1CCN(C(=O)CSc2nc3ccccc3c(=O)n2Cc2ccc3c(c2)OCO3)CC1 | inconclusive: 22.3 µM [signal inhibitor, single point] |
| O=C1NC(=O)C2(Cc3ccccc3N3CCCC32)C(=O)N1c1ccc(Cl)cc1 (stereo not drawn) | inactive |
| CCCCC(C(=O)O)C(C)CC(=O)Nc1ccn(-c2ccccc2)n1 (stereo not drawn) | inactive |
| CCOC(=O)N1CCN(S(=O)(=O)c2ccc(C(=O)NNc3nc4c(C)cccc4s3)cc2)CC1 | inconclusive: 5 µM [signal inhibitor, partial curve] |
